Measurements reported in PubChem BioAssay AID1671195 (Yale University, 2021)

Test: 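Knockdowns that increase or decrease uptake of fluorescent LDL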 (primary screen)
Cells: human Huh7 hepatoma cells
Reagents: siRNA pool against human genes, 18 nM
Timing: about 2 to 2.5 days of knockdown, then 8 h LDL uptake
Treatment: DiI-labelled LDL at 30 µg/ml for 8 h, in lipoprotein-deficient serum medium
Read-out: 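Per-cell DiI-LDL intensity by automated imaging; well means scaled to the plate median and given as a robust z-score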
Reading the numbers: robust z-score: higher = more LDL uptake after knockdown
Rule for the call: 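a gene counts as active if at least two replicate z-scores exceed ±2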
Shown is one part, drawn at random, of about 22,000 deposited reagents. About 1,510 of all reagents (6.9%) count as active. 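Active includes knockdowns raising or lowering LDL uptake; positive z-scores mean more uptake, negative mean less.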 A number with no mark means an inactive call.

Target gene | robust z-score, replicate 1 | robust z-score, replicate 2 | robust z-score, replicate 3
HMGN3 (GeneID 9324) | 0.0543 | 0.284 | 0.316
MRPS17 (GeneID 51373) | 0.903 | 1.38 | 1.41
RNASE7 (GeneID 84659) | -0.351 | -0.729 | -0.512
AKT3 (GeneID 10000) | 1.01 | 0.215 | 0.25
IKZF2 (GeneID 22807) | 0.622 | 0.0411 | 0.779
COMMD6 (GeneID 170622) | 0.232 | -0.214 | 0.257
FBXO44 (GeneID 93611) | 1.16 | 1.03 | 1.33
LINC00692 (GeneID 285326) | -0.0857 | -0.0932 | -0.213
HOMER2 (GeneID 9455) | -0.124 | 0.188 | -0.849
AP5Z1 (GeneID 9907) | -0.771 | -0.0162 | -1.73
STYX (GeneID 6815) | -0.487 | 1.02 | 0.552
PYROXD2 (GeneID 84795) | 0.188 | 0.598 | -0.173
SLC5A11 (GeneID 115584) | 0.139 | 0.374 | 0.874
KIF2B (GeneID 84643) | 0.547 | 0.58 | 0.248
CDX1 (GeneID 1044) | -0.827 | -0.734 | 0.178
LINC00575 (GeneID 439934) | 0.684 | 0.478 | 0.23
CD96 (GeneID 10225) | 0.386 | -1.38 | -0.896
LOC728510 (GeneID 728510) | 0.674 | 0.346 | 0.542
CRIP1 (GeneID 1396) | -0.634 | -0.727 | -0.163
SGPP1 (GeneID 81537) | -1.07 | -0.841 | -0.74
IMMP1L (GeneID 196294) | -1.57 | -1.07 | -1.11
VWA3A (GeneID 146177) | 0.0017 | -0.693 | 0.249
MYF6 (GeneID 4618) | 0.0155 | 0.186 | 0.654
SEMA4F (GeneID 10505) | -0.715 | -1.18 | -1.29
ZDHHC8BP (GeneID 150244) | 0.779 | 1.19 | -0.0693
FCGR1A (GeneID 2209) | 0.19 | -0.255 | -0.842
WBP1L (GeneID 54838) | 1.45 | 0.65 | 2.08
TTC12 (GeneID 54970) | -1.51 | -1.56 | -2.1
H2BC5 (GeneID 3017) | 2.18 | 1.12 | 1.71
BMI1 (GeneID 648) | -2 | -1.79 | -1.72
LOC390738 (retired record) (GeneID 390738) | 0.504 | -0.017 | -0.0232
LOC441347 (retired record) (GeneID 441347) | -0.304 | -0.274 | -0.0477
MCCC1 (GeneID 56922) | 1.11 | 1.3 | 1.05
RASIP1 (GeneID 54922) | -0.0361 | -0.254 | 0.395
PRR27 (GeneID 401137) | -0.45 | 0.0504 | -0.203
LECT2 (GeneID 3950) | 0.901 | 0.161 | -0.00965
GML (GeneID 2765) | 1.33 | 0.595 | 1.77
ZSCAN20 (GeneID 7579) | 1.34 | 1.35 | 0.82
MED13L (GeneID 23389) | -0.908 | -0.278 | -1.69
CEP44 (GeneID 80817) | -0.301 | -0.602 | -0.333
LOC401210 (retired record) (GeneID 401210) | -1.26 | -1.06 | -0.742
STH (GeneID 246744) | -0.39 | -0.185 | -0.346
DLST (GeneID 1743) | -1.67 | -0.00347 | -1.56
LOC392177 (retired record) (GeneID 392177) | -0.367 | -0.497 | -0.748
ZNF622 (GeneID 90441) | 0.0605 | -0.302 | -0.448
SELENOF (GeneID 9403) | 2.56 | -0.593 | 0.232
TRMT5 (GeneID 57570) | -0.767 | -0.771 | 2.05
SRSF7 (GeneID 6432) | -0.549 | -0.374 | -0.37
CLEC1A (GeneID 51267) | -1.66 | -1.41 | -0.958
RPL8 (GeneID 6132) | -1.49 | -0.676 | -1.46
SPRR1A (GeneID 6698) | -2.19 | -1.09 | -1.57
HIKESHI (GeneID 51501) | 1.91 (active) | 3.08 | 1.04
RXFP2 (GeneID 122042) | -0.597 | -0.419 | -0.184
SMIM26 (GeneID 388789) | -1.41 (active) | -2.04 | -1.91
ZMAT4 (GeneID 79698) | -0.58 | -0.478 | -1.02
LOC347381 (GeneID 347381) | 3.22 (active) | 2.86 | 2.3
LOC441905 (retired record) (GeneID 441905) | -0.624 | -0.531 | -0.401
NLRP2 (GeneID 55655) | -0.0532 | 1.33 | -0.281
SMC1A (GeneID 8243) | -1.79 | -1.65 | -1.4
ATP1B2 (GeneID 482) | -0.0346 | -0.0982 | -0.674
LOC347424 (retired record) (GeneID 347424) | -0.87 | -1.19 | -0.934
TRIM26 (GeneID 7726) | -1.52 | -2.08 | -0.992
PIGQ (GeneID 9091) | -1.78 | -1.81 | -1.56
MT1A (GeneID 4489) | -0.204 | -0.171 | -0.13
SRPX2 (GeneID 27286) | 0.302 | -0.256 | 0.538
CMA1 (GeneID 1215) | -1.22 | -0.858 | -0.872
TAFA2 (GeneID 338811) | 0.734 | 0.559 | 0.684
BBX (GeneID 56987) | -0.809 | -0.88 | -0.894
WDR45 (GeneID 11152) | 0.683 | 0.213 | -0.34
LINC01139 (GeneID 339535) | -0.159 | 0.144 | -0.141
ZNF398 (GeneID 57541) | 0.574 | 0.902 | 0.899
TMEM39A (GeneID 55254) | 0.134 | -0.701 | -1.46
PNMA6A (GeneID 84968) | -0.347 | -0.112 | 0.035
SLC25A5P2 (GeneID 344371) | -1.73 | -1.7 | -1.63
ZNF25 (GeneID 219749) | 2.48 (active) | 2.84 | 2.4
RRAS2 (GeneID 22800) | 1.3 | 0.273 | 0.0565
LOC441912 (retired record) (GeneID 441912) | 2 (active) | 1.55 | 2.26
NUBP1 (GeneID 4682) | 0.128 | 0.235 | 0.318
SLC17A7 (GeneID 57030) | 2.41 (active) | 2.08 | 1.26
TYRO3 (GeneID 7301) | 0.719 | -0.169 | 0.89
EPHA10 (GeneID 284656) | -0.414 | 0.155 | -0.597
TFB2M (GeneID 64216) | 2.4 (active) | 2.51 | 2.82
DRC2 (GeneID 85478) | -0.669 | -0.651 | -0.716
CRMP1 (GeneID 1400) | 3.9 (active) | 3.57 | 3.98
TYW5 (GeneID 129450) | 0.653 | -0.986 | -0.224
SOX10 (GeneID 6663) | -0.921 | -0.598 | -0.95
LOC391817 (retired record) (GeneID 391817) | -1.84 | -2.01 | -1.75

Limited to “robust z-score, replicate 1” (9 entries from above):
ZNF25 (GeneID 219749): 2.48 (active)
RRAS2 (GeneID 22800): 1.3
LOC441912 (retired record) (GeneID 441912): 2 (active)
NUBP1 (GeneID 4682): 0.128
SLC17A7 (GeneID 57030): 2.41 (active)
TYRO3 (GeneID 7301): 0.719
EPHA10 (GeneID 284656): -0.414
TFB2M (GeneID 64216): 2.4 (active)
DRC2 (GeneID 85478): -0.669
